Measured values from doi:10.1101/2019.12.13.867358 (bioRxiv, 2019).
No constants are given. Whether binding was seen depends on the method and setting. Some entries that bind do so weakly or less than the wild type.

Biological target: T1, Smc4 (S. cerevisiae), Q12267
T1 chain: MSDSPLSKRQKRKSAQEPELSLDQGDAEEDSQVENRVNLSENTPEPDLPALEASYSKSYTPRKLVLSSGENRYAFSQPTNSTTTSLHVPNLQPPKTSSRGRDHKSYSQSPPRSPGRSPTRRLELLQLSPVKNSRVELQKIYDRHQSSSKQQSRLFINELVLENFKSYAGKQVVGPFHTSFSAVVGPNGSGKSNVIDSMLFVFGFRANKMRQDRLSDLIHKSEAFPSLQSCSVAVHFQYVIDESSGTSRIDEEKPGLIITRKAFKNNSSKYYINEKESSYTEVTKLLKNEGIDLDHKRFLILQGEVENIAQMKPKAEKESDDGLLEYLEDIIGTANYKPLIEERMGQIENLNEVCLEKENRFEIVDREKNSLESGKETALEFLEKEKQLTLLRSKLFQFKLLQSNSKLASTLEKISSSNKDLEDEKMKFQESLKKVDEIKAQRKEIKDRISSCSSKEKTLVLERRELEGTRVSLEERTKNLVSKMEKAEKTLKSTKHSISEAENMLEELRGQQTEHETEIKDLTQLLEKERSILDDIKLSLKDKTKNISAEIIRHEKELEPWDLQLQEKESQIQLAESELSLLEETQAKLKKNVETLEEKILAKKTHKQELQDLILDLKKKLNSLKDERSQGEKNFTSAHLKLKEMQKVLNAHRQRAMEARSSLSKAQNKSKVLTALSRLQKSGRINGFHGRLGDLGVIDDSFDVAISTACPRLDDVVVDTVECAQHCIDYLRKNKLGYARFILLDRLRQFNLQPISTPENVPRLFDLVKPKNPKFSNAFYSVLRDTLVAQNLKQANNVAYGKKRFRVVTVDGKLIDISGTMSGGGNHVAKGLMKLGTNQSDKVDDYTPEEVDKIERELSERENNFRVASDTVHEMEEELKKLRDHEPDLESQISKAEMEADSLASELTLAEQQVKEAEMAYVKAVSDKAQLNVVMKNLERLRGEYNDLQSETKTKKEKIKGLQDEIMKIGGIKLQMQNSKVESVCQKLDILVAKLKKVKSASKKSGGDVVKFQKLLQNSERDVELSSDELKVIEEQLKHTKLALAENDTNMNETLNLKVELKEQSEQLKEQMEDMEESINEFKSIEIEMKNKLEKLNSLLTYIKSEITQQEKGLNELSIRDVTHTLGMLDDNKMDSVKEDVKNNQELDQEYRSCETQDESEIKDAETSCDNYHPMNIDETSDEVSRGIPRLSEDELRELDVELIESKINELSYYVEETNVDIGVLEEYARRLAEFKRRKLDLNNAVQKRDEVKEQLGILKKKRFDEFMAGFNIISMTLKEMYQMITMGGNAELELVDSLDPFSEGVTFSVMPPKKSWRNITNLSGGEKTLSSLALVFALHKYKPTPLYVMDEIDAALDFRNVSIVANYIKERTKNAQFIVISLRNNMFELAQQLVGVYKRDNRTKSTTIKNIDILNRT
Experiment: tandem affinity co-purification
Details: remark: other sources report otherwise

binding: binds
B1: Ycg1, Q06680 1-1035 (protein)
chain: MQDPDGIDINTKIFNSVAEVFQKAQGSYAGHRKHIAVLKKIQSKAVEQGYEDAFNFWFDKLVTKILPLKKNEIIGDRIVKLVAAFIASLERELILAKKQNYKLTNDEEGIFSRFVDQFIRHVLRGVESPDKNVRFRVLQLLAVIMDNIGEIDESLFNLLILSLNKRIYDREPTVRIQAVFCLTKFQDEEQTEHLTELSDNEENFEATRTLVASIQNDPSAEVRRAAMLNLINDNNTRPYILERARDVNIVNRRLVYSRILKSMGRKCFDDIEPHIFDQLIEWGLEDRELSVRNACKRLIAHDWLNALDGDLIELLEKLDVSRSSVCVKAIEALFQSRPDILSKIKFPESIWKDFTVEIAFLFRAIYLYCLDNNITEMLEENFPEASKLSEHLNHYILLRYHHNDISNDSQSHFDYNTLEFIIEQLSIAAERYDYSDEVGRRSMLTVVRNMLALTTLSEPLIKIGIRVMKSLSINEKDFVTMAIEIINDIRDDDIEKQEQEEKIKSKKINRRNETSVDEEDENGTHNDEVNEDEEDDNISSFHSAVENLVQGNGNVSESDIINNLPPEKEASSATIVLCLTRSSYMLELVNTPLTENILIASLMDTLITPAVRNTAPNIRELGVKNLGLCCLLDVKLAIDNMYILGMCVSKGNASLKYIALQVIVDIFSVHGNTVVDGEGKVDSISLHKIFYKVLKNNGLPECQVIAAEGLCKLFLADVFTDDDLFETLVLSYFSPINSSNEALVQAFAFCIPVYCFSHPAHQQRMSRTAADILLRLCVLWDDLQSSVIPEVDREAMLKPNIIFQQLLFWTDPRNLVNQTGSTKKDTVQLTFLIDVLKIYAQIEKKEIKKMIITNINAIFLSSEQDYSTLKELLEYSDDIAENDNLDNVSKNALDKLRNNLNSLIEEINERSETQTKDENNTANDQYSSILGNSFNKSSNDTIEHAADITDGNNTELTKTTVNISAVDNTTEQSNSRKRTRSEAEQIDTSKNLENMSIQDTSTVAKNVSFVLPDEKSDAMSIDEEDKDSESFSEVC
